# Assay results reported in PubChem BioAssay (NCATS).
# “And” between values parts separate entries of the source, which are not always exact repeats. Identical values can stand only once. Some of the results follow. Shown are side measurements of this screen, not its main read-out; they come without a call. Most of these compounds were active or inconclusive in the main read-out, so they are no random draw. Potencies come from curve fits of mixed quality, noted in brackets.
# Test: qHTS Assay for Inhibitors of PDE-IV (AID 607)
# Conditions: HEK293 ACTOne CNG channel cells, membrane potential fluorescence; measured here: parental cell counter-screen
# Summary of the method: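 Cell-based read-out of cAMP via a modified cyclic nucleotide-gated channel and membrane potential dye (535/590 nm) in HEK293 cells expressing PDE4 endogenously. Compounds tested up to 22.9 uM final; 100 uM RO 20-1724 reference.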
row,Compound,AC50
1,COC(=O)Nc1nc2ccc(C(=O)c3cccs3)cc2[nH]1,"3.16 µM [rising, partial curve, poor fit]"
2,CCOC(=O)N1CCC(=C2c3ccc(Cl)cc3CCc3cccnc32)CC1,"15.8 µM [rising, partial curve, poor fit]"
3,O=C1C(SCCO)=C(SCCO)C(=O)c2ccccc21,"0.316 µM [falling, full curve]"
4,Oc1ccc(-c2nc(-c3ccc(F)cc3)c(-c3ccncc3)[nH]2)cc1,"15.8 µM [falling, partial curve]"
5,O=C(Nc1ccc([N+](=O)[O-])cc1Cl)c1cc(Cl)ccc1O,"631 nM [rising, full curve] and 1 µM [rising, partial curve]"

# Test: Validation of Assay for Modulators of Lamin A Splicing (AID 1459)
# Conditions: Lamin A splicing dual RFP/GFP fluorescence reporter, ratio; measured here: GFP channel
# Summary of the method: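 S3 HeLa stably expressing lamin A-EGFP splicing minigene and DsRed2, 600 cells/well in Opti-MEM with 2% FBS, treated 48 h at 37C; laser-scanning cytometry gives GFP/RFP total intensity ratio; ancitabine positive control, 0.5% DMSO vehicle.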
row,Compound,AC50
1,COc1ccc(NC(=O)/C=C/c2ccc(Cl)cc2)cc1,"15.8 µM [rising, single point]"
2,OC[C@H]1O[C@@H](n2cnc3cncnc32)[C@H](O)[C@@H]1O,"17.8 µM [rising, single point]"
3,CN1CCN(CCCN2c3ccccc3Sc3ccc(C(F)(F)F)cc32)CC1,"35.5 µM [falling, single point]"
4,CC(=O)SC1CC2=CC(=O)CC[C@]2(C)C2CC[C@@]3(C)[C@@H](CC[C@@]34CCC(=O)O4)C12 (stereo partly specified),"11.2 µM [falling, partial curve]"
5,COC(=O)Nc1nc2ccc(C(=O)c3cccs3)cc2[nH]1,"0.316 µM [falling, full curve]"
6,N[C@@H](CC(=O)O)C(=O)O,"35.5 µM [falling, single point]"
